Measurements taken from PubChem BioAssay AID493014 (National Center for Advancing Translational Sciences (NCATS), 2011).
This is one part of the list. The main result of the screen is listed elsewhere. These columns were measured beside it and carry no call. Compounds called inactive in the main read-out are mostly missing here. Potencies come from curve fits of mixed quality, noted in brackets.

Assay: qHTS Assay to Find Inhibitors of Chronic Active B-Cell Receptor Signaling
Settings: ABC-DLBCL IkBa-CBG/CBR reporter, luminescence ratio (green luciferase fused to IkBa over red control in TMD8 lymphoma cells), 4 h
In short: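 TMD8 human ABC-DLBCL cells with doxycycline-inducible IκBα–green luciferase fusion and unfused red luciferase, in 0.5% FBS medium; compounds up to 46 uM, 4 h at 37C. Green/red luminescence ratio, filter-overlap corrected, fitted to concentration-response curves.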

[1] = measured here: CBR red luminescence, cell number
[2] = measured here: IkBa-CBG green luminescence

| Structure (SMILES) | AC50 [1] | AC50 [2] |
| --- | --- | --- |
| O=C(CCc1ccccc1)NN1C(=O)C2C3C=CC(O3)C2C1=O (stereo not drawn) | 35.5 µM [falling, single point] | – |
| Nc1cccc(C(=O)Nc2ccc3nc(-c4cccnc4)[nH]c3c2)c1 | 20.6 µM [falling, partial curve, poor fit] | – |
| O=C1N=C(N2CCOCC2)S/C1=C/c1ccc(-c2ccccc2Cl)o1 | 3.66 µM [rising, full curve, poor fit] | – |
| COc1cc2c(cc1NC(=O)C(C)OC(=O)C1CC(=O)N(Cc3ccco3)C1)oc1ccccc12 (stereo not drawn) | 29.1 µM [falling, single point] | – |
| COc1cccc(-c2nnc(NC(=O)c3ccco3)s2)c1 | 3.16 µM [falling, full curve] | – |
| O=C(NCCO)c1ccc2[nH]c3ccccc3c2c1 | 4.11 µM [rising, single point] | 5.62 µM [rising, partial curve, poor fit] |
| Cn1c2ccccc2c2cc(C(=O)N3CCOCC3)sc21 | 1.12 µM [rising, full curve] | – |
| O=[N+]([O-])c1ccc(O)c(/C=N\N=C2c3ccccc3-c3ccccc32)c1 | 0.461 µM [rising, full curve] | – |
| COc1ccc(C(=O)NC(C)C2CC3CCC2C3)cc1 (stereo not drawn) | 14.1 µM [rising, partial curve, poor fit] | – |
| Cc1ccc(NCCC(=O)c2ccc(Cl)cc2)cc1 | 0.631 µM [falling, full curve, poor fit] | – |
| N#Cc1ccc(S(=O)(=O)N2CCC(C(=O)Nc3cccc(C(=O)NC4CC4)c3)CC2)cc1 | 1.3 µM [rising, full curve, poor fit] | – |
| CNC(=O)c1ccccc1Sc1cccc2cccc(C(=O)O)c12 | 14.1 µM [rising, single point] | – |
| NC(=S)NC(=O)/C=C/c1ccccc1 | 8.91 µM [falling, single point] | – |
| C/C=C/c1ccc(OCC(=O)OCC(=O)Nc2c(C)nn(-c3ccccc3)c2C)c(OC)c1 | 0.00366 µM [rising, full curve, poor fit] | – |
| C/C(Cn1nnc([N+](=O)[O-])n1)=N\NC(=O)c1ccc(O)cc1 | 1.12 µM [falling, full curve] | – |
| O=C(c1ccc2nc(-c3ccco3)c(-c3ccco3)nc2c1)N1CCN(c2ccccc2)CC1 | 16.4 µM [falling, single point] | – |
| O=C(Nc1ccccc1C(F)(F)F)c1cc(-c2cccc(O)c2)on1 | 17.8 µM [falling, partial curve, poor fit] | – |
| CCc1[nH]nc(C(=O)NC2CCCc3c2cnn3-c2cc(C)cc(C)c2)c1C (stereo not drawn) | 35.5 µM [falling, single point] | – |
| O=C1/C(=C/c2ccccc2Cl)SC(=S)N1CCCC(=O)N(CCO)c1ccccc1 | 8.91 µM [falling, partial curve, poor fit] | – |
| Cc1c(C=O)c2ccccn2c1C(=O)c1ccccc1 | 29.1 µM [rising, single point] | – |
| CCOC(=O)C1C(c2ccc(O)c(O)c2)NC(=S)NC1(O)C(F)(F)F (stereo not drawn) | 20.6 µM [rising, partial curve] | – |

Rewritten field by field: 2 of the compounds above.
COc1cccc(-c2nnc(NC(=O)c3ccco3)s2)c1
  AC50 [1]: 3.16 µM [falling, full curve]
O=C(NCCO)c1ccc2[nH]c3ccccc3c2c1
  AC50 [1]: 4.11 µM [rising, single point]; AC50 [2]: 5.62 µM [rising, partial curve, poor fit]

Going on with the list:

| Structure (SMILES) | AC50 [1] | AC50 [2] |
| --- | --- | --- |
| CCCc1cc(=O)oc2c(C)c(OCC(=O)NC3CC(C)(C)NC(C)(C)C3)ccc12 | 12.6 µM [rising, single point] | – |
| CCOc1ccc(N(CC(=O)NCCOc2ccccc2OC)S(=O)(=O)c2ccccc2)cc1 | 25.1 µM [falling, single point] | – |
| CCCn1c(N)c(C(=O)CSc2nncs2)c(=O)[nH]c1=O | – | 29.1 µM [falling, partial curve, poor fit] |
| Cc1ccc2nc(CSc3nnc(Nc4ccccc4C)s3)cc(=O)n2c1 | 16.4 µM [falling, single point] | – |
| COc1cc(N=c2ssnc2Cl)cc(OC)c1 | 2.06 µM [falling, partial curve, poor fit] | – |
| CCOC(=O)c1ccc(NC(=O)CCC(=O)OC)cc1 | 1.3 µM [falling, full curve] | – |
| Nc1nc(-c2cccs2)c(CC(=O)O)s1 | 22.4 µM [falling, single point] | – |
| O=C(c1nnc(-c2ccccc2)o1)C1CC1 | 7.94 µM [rising, partial curve, poor fit] | – |
| COc1cccc(/C=C/C(=O)c2ccc[nH]2)c1 | 23.1 µM [falling, single point] | – |
| Clc1cc(Br)ccc1OCCN1CCOCC1 | 11.6 µM [rising, single point] | – |
| CC(=O)c1ccccc1NC(=O)CSc1n[nH]c(=O)n1C1CC1 | 25.9 µM [falling, single point] | – |
| COc1ccc(OC)c(N=c2oc3cc(O)ccc3cc2C(N)=O)c1 | 0.398 µM [falling, full curve, poor fit] | – |
| CCc1nnc(SCC(=O)Nc2ccc(NC(C)=O)cc2)n1-n1cccc1 | 29.1 µM [rising, single point] | – |
| Cc1ccc(S(=O)(=O)N(Cc2ccc(Cl)cc2)c2ccccc2C(=O)NCc2ccco2)cc1 | 10.3 µM [falling, partial curve] | 23.1 µM [rising, partial curve, poor fit] |
| Clc1ccc(C2=NCCn3nc4ccccc4c32)cc1 | 20.6 µM [falling, partial curve, poor fit] | – |
| CCCCNC(=O)/C=C1\Sc2ccccc2NC1=O | 13 µM [falling, single point] | – |
| Cc1[nH]nc2oc(=O)c(CCO)c(C)c12 | 1.16 µM [rising, full curve, poor fit] | – |
| CC(C)(C)OC(=O)N1CCCC(C(=O)Nc2ccc(C(=O)N3CCCC3)cc2)C1 (stereo not drawn) | 10.3 µM [rising, partial curve, poor fit] | – |
| O=C(c1ccc(-c2ccc([N+](=O)[O-])cc2)o1)N1CCCCCCC1 | 1.64 µM [rising, full curve, poor fit] | – |
| O=C(CCCN1C(=O)/C(=C/c2ccccc2Cl)SC1=S)NNC(=O)c1ccccc1 | 2.06 µM [falling, full curve] | – |
